PubChem BioAssay AID1159584 | Peter MacCallum Cancer Centre | 2016
Aim: 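Knock-downs that harm CDH1-null cells more than parental MCF10A cells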 (primary screen). System: human MCF10A breast epithelial cells, parental and CDH1-null. Reagent: siRNA against human genes. Measurement: 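Cell viability by CellTiter-Glo ATP luminescence, each line scaled to the mean of mock wells across plates, then CDH1-null over parental ratio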. Scale: CDH1-null / parental viability ratio: higher = CDH1-null cells survive relatively better than parental; CDH1-null viability vs mock: higher = more viable CDH1-null cells; parental viability vs mock: higher = more viable parental cells.
Here is a random part of about 18,000 reagents tested. No sequences are given here. Not given: the amount of reagent, the time to read-out.

| Target gene | CDH1-null / parental viability ratio | CDH1-null viability vs mock (fraction of mock) | parental viability vs mock (fraction of mock) |
| --- | --- | --- | --- |
| FAF2 | 0.88 | 0.98 | 1.11 |
| DPYSL5 | 1 | 1 | 1 |
| FREY1 | 1.11 | 1.07 | 0.96 |
| CBLN4 | 1.07 | 0.64 | 0.6 |
| CBFA2T2 | 1 | 0.9 | 0.9 |
| KCNC2 | 1.14 | 1.06 | 0.93 |
| C16orf89 | 1 | 0.88 | 0.88 |
| ING3 | 1.02 | 0.56 | 0.55 |
| IHO1 | 1.02 | 0.92 | 0.9 |
| BMAL2 | 1.01 | 0.94 | 0.93 |
| ANP32E | 0.89 | 0.66 | 0.74 |
| LRRC49 | 0.77 | 0.8 | 1.04 |
| SLAMF7 | 0.83 | 0.75 | 0.9 |
| UGGT1 | 0.88 | 0.64 | 0.73 |
| TUT7 | 0.92 | 0.46 | 0.5 |

Continued; the last 4 above are carried over.
| Target gene | CDH1-null / parental viability ratio | CDH1-null viability vs mock (fraction of mock) | parental viability vs mock (fraction of mock) |
| --- | --- | --- | --- |
| LRRC49 | 0.77 | 0.8 | 1.04 |
| SLAMF7 | 0.83 | 0.75 | 0.9 |
| UGGT1 | 0.88 | 0.64 | 0.73 |
| TUT7 | 0.92 | 0.46 | 0.5 |
| GPR173 | 0.86 | 0.78 | 0.91 |
| SNX2 | 0.93 | 0.8 | 0.86 |
| KRTAP11-1 | 0.79 | 0.84 | 1.07 |
| ZNF253 | 1.06 | 1.05 | 0.99 |
| WDR11 | 1.2 | 0.89 | 0.74 |
| KHDC4 | 1.13 | 0.85 | 0.75 |
| GLI3 | 0.83 | 0.57 | 0.69 |
| TWF1 | 0.96 | 1.01 | 1.05 |
| WSCD1 | 1.06 | 0.85 | 0.8 |
| OSGIN1 | 0.97 | 0.7 | 0.72 |
| PXYLP1 | 1.41 | 0.62 | 0.44 |
| FXR2 | 1.12 | 0.82 | 0.73 |
| ATP6V0E2 | 0.96 | 0.69 | 0.72 |
